No constants are given. Whether binding was seen depends on the method and setting. Binding seen in cells or lysates may run through a third protein. Some entries that bind do so weakly or less than the wild type.
Biological target: WT KHNYN-GFP (human) (UniProt O15037)
Test: co-IP; HeLa cells stably expressing KHNYN-GFP proteins; lysis in 0.5% NP-40, 150 mM KCl, 10 mM Hepes pH 7.5, 3 mM MgCl2; post-nuclear supernatant precipitated with anti-GFP and Protein G Dynabeads; Western blot

Chains of the proteins cited; added tags and fusions are not shown.
UniProt O15037: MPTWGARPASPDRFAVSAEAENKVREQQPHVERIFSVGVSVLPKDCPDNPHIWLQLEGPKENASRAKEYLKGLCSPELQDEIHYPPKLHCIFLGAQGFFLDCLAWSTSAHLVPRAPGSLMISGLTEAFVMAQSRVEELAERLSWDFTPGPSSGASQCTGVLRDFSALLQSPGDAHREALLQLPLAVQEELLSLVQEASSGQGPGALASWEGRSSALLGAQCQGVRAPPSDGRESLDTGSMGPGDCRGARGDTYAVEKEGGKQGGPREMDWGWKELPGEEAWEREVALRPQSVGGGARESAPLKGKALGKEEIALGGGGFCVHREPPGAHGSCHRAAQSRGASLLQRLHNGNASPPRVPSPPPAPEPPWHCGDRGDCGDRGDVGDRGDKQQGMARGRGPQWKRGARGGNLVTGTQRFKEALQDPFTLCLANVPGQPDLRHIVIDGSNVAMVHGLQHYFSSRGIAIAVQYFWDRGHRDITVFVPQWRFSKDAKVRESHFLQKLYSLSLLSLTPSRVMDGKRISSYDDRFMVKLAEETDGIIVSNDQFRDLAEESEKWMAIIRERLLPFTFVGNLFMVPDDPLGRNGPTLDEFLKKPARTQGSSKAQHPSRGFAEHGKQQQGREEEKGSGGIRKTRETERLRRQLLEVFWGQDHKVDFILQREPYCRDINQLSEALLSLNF
UniProt Q7Z2W4: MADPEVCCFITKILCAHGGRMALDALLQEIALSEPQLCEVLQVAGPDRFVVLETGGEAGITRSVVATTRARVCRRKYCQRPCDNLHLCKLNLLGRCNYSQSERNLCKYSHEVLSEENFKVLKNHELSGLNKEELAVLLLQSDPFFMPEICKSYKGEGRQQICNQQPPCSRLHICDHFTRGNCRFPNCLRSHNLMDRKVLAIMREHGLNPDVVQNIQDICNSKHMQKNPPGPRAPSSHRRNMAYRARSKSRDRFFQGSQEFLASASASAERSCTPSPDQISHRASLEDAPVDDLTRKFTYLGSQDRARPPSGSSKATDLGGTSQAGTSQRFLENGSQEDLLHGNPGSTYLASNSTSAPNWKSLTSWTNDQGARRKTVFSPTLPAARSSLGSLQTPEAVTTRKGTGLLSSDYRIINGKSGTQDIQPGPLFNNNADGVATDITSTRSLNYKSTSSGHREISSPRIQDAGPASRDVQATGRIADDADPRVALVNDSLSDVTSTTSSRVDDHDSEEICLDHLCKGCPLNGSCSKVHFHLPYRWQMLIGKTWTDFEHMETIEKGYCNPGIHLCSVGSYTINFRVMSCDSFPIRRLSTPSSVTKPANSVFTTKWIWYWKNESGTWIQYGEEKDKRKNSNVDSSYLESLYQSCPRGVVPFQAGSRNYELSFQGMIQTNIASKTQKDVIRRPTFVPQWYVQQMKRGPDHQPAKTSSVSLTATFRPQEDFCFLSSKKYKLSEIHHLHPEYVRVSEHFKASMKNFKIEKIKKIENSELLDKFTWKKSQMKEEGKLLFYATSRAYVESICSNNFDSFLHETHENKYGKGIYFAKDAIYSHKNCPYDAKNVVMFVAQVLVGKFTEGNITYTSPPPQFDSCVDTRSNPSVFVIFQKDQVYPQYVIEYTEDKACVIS

Zinc finger antiviral protein (ZAP) (from UniProt Q7Z2W4 1-902)
binding: binds
